For this assay, the target named is GFP-PmACRE1 (Avr9/Cf-9 rapidly elicited protein 1 of Pinus massoniana) (Pinus massoniana). The assay can be described thus: affinity purification with mass spectrometry; leaf proteins of T3 homozygous PmACRE1-OX transgenic A. thaliana incubated with GFP-Trap agarose (ChromoTek); vector control line as control; SDS-PAGE, trypsin, LC-MS/MS (Orbitrap Fusion Lumos), Proteome Discoverer against UniProt.

The record followed here is publication PMC9682698.

No constants are given. Whether binding was seen depends on the method and setting. Binding seen in cells or lysates may run through a third protein. These calls come from enrichment with a bait or labelling near it, and not all partners need be listed.

B1: Glycine-rich protein (protein, UniProt Q9LFX8 1-420)
chain: MAATASSEASEGPVMGLINKRLRALRKKYNRITQMEESISQGKTLNKEQEEVLRSKPAVVILIDELEKIRAPLSAAVTEEISLATQLNRASSDQTTASEQKEVTDIPQEVSGGDDGAKLEDLVNFLYFGSLFDVKSQNEFTSIMLTRTHERSCCLSYDYVTDDATDLLGDRDLDSISQLWSLMVSRPVDSSLSHKNALERCVEHAKLWLANSEQPIESNCNTSYAALREKLKKIMASDYFTTTPEMKAPVDVAAAAGNYTSYQVPVDVEASGHYQQKEEDASNSKEVESVVNDQSQQDEHQKVELVTEGEVVHGQQEQGYTQVGGAENAKRDYVPRGSYQNQRGRRGARRGGGGYQNGRGGRGGGGGYQNGRYESYDQSGGNGYQRNYYNNRGRGRGGGGGGGNGHSYNNYQDPNVAVAS
Regarding B1, the binding entry is on record as “binds”.

B2: Myrosinase 2 (protein, UniProt Q9C5C2 29-547)
chain: KPEEEITCEENVPFTCSQTDRFNKQDFESDFIFGVASSAYQIEGGRGRGLNVWDGFTHRYPEKGGADLGNGDTTCDSYRTWQKDLDVMEELGVKGYRFSFAWSRILPKGKRSRGINEDGINYYSGLIDGLIARNITPFVTLFHWDLPQSLQDEYEGFLDRTIIDDFKDYADLCFERFGDRVKHWITINQLFTVPTRGYALGTDAPGRCSQWVDKRCYGGDSSTEPYIVAHNQLLAHATVVDLYRTRYKYQGGKIGPVMITRWFLPYDDTLESKQATWRAKEFFLGWFMEPLTKGKYPYIMRKLVGNRLPKFNSTEARLLKGSYDFLGLNYYVTQYAHALDPSPPEKLTAMTDSLANLTSLDANGQPPGPPFSKGSYYHPRGMLNVMEHFKTKYGDPLIYVTENGFSTSGGPIPFTEAFHDYNRIDYLCSHLCFLRKAIKEKRVNVKGYFVWSLGDNYEFCNGYTVRFGLSYVDFNNVTADRDLKASGLWYQSFLRDTTKNQDILRSSLPFKNGDRKSLT
With B2, the binding result is “binds”.

B3: Geranylgeranyl diphosphate reductase, chloroplastic (protein, UniProt Q9CA67 44-467)
chain: AARATPKLSNRKLRVAVIGGGPAGGAAAETLAQGGIETILIERKMDNCKPCGGAIPLCMVGEFNLPLDIIDRRVTKMKMISPSNIAVDIGRTLKEHEYIGMVRREVLDAYLRERAEKSGATVINGLFLKMDHPENWDSPYTLHYTEYDGKTGATGTKKTMEVDAVIGADGANSRVAKSIDAGDYDYAIAFQERIRIPDEKMTYYEDLAEMYVGDDVSPDFYGWVFPKCDHVAVGTGTVTHKGDIKKFQLATRNRAKDKILGGKIIRVEAHPIPEHPRPRRLSKRVALVGDAAGYVTKCSGEGIYFAAKSGRMCAEAIVEGSQNGKKMIDEGDLRKYLEKWDKTYLPTYRVLDVLQKVFYRSNPAREAFVEMCNDEYVQKMTFDSYLYKRVAPGSPLEDIKLAVNTIGSLVRANALRREIEKLSV
Take B3: the binding result is “binds”.
